From publication PMC7862700
This is a selection; strong and weak results do not stand in their true shares. At the low end of the ranking, values are background and their order means little.

Sequences of proteins named here, by UniProt entry; tags and fusion partners are left off. A change or cut given only in a name is not applied to a line headed by its entry.
UniProt Q9Y603: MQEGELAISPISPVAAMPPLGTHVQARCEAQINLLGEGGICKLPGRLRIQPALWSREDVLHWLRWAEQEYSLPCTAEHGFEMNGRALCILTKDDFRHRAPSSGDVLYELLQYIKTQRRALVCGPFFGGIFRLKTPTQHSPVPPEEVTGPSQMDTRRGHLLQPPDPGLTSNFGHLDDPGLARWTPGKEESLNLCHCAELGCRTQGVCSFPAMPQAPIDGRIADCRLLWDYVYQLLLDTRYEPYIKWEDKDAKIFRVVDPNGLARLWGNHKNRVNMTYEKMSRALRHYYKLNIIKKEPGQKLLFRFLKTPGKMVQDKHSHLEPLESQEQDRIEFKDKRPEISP
UniProt P41212: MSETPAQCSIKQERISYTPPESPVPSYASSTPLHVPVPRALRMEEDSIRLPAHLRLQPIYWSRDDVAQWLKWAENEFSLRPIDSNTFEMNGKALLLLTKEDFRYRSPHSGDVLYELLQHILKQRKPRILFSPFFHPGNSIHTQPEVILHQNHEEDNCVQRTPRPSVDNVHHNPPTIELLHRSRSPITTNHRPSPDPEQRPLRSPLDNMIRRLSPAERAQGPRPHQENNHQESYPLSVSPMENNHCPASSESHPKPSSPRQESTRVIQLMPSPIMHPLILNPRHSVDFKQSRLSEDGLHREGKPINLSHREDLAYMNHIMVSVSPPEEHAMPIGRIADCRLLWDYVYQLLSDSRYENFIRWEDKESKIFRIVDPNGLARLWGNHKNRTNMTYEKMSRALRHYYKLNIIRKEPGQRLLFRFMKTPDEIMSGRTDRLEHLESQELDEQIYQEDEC

Biological target: ETV7 (UniProt Q9Y603)
Experiment: DAPPL (digital affinity profiling via proximity ligation, sequencing)
Settings: 10 mM Tris-HCl pH 7.5, 50 mM NaCl, 1 mM DTT, 4% glycerol, room temperature, 30 min; GST-TFs on glutathione beads, 16-mer random dsDNA library, 0.1% …; high values mean tight binding; double strand, one strand shown; scale: fold enrichment (6-mer frequency, TF over GST control)

Sequence	binding signal
CTCTAC	1.28
AGCTGT	0.975
CCACAG	0.863
GTGCTG	0.914
CTGGTG	1.04
GTGATG	0.881
TAAGGA	0.831
AGCTCG	0.977
TCGTAT	0.924
GCGCAC	0.987
CTGAGG	0.918
GCCTGA	0.894
TAGCGC	0.941
CGCAAT	0.948
GCAAAG	0.994
GCCGTC	1.03
GTAAGC	0.982
TCAGAC	0.853
TAAGTC	0.962
GTGGAT	0.906

Sequence	binding signal
GTTTCT	1.38
GGATCA	0.772
GTTTAG	0.949
TAAAGC	1.04
GGATCT	1.07
TTCGGG	0.937
GTTGCG	1.04
ATAGTG	0.978
GACCGA	0.774
CCCTGA	0.981
GCAGAA	0.954
GTTATC	0.989
ACCCGT	0.926
GATTAG	0.902
TCCGAG	0.978
CCAAGT	0.952
GATAAC	0.905
AGTTTG	0.9
GATGGA	0.924

Biological target: ETV6 (UniProt P41212)
Experiment: as above
Settings: 10 mM Tris-HCl pH 7.5, 50 mM NaCl, 1 mM DTT, 4% glycerol, room temperature, 30 min; GST-TFs on glutathione beads, 16-mer random dsDNA library, 0.1% …; high values mean tight binding; double strand, one strand shown; scale: fold enrichment (6-mer frequency, TF over GST control)

Sequence	binding signal
CTCTAC	1.43
AGCTGT	0.924
CCACAG	0.91
GTGCTG	0.894
CTGGTG	1.03
GTGATG	0.839
TAAGGA	0.824
AGCTCG	0.998
TCGTAT	0.985
GCGCAC	0.948
CTGAGG	0.791
GCCTGA	0.967
TAGCGC	0.904
CGCAAT	0.903
GCAAAG	0.934
GCCGTC	0.935
GTAAGC	0.975
TCAGAC	0.859
TAAGTC	0.91
GTGGAT	0.959

Sequence	binding signal
GTTTCT	1.28
GGATCA	0.851
GTTTAG	0.902
TAAAGC	1.02
GGATCT	0.917
TTCGGG	0.84
GTTGCG	0.968
ATAGTG	0.891
GACCGA	0.851
CCCTGA	1.05
GCAGAA	0.873
GTTATC	1.1
ACCCGT	0.865
GATTAG	0.771
TCCGAG	0.968
CCAAGT	0.927
GATAAC	0.843
AGTTTG	0.966
GATGGA	0.951
